{"source": "PubChem BioAssay AID2685", "about": "(National Center for Advancing Translational Sciences (NCATS), 2010)", "experiment": "qHTS Assay for Lipid Storage Modulators in Drosophila S3 Cells;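 for cell number change: cells counted by Cell Tracker Red CMTPX staining in the red channel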", "settings": "BODIPY lipid droplet fluorescence, 18-24 h; for cell number change: measured here: cell count max response, cells fed with added oleic acid", "method_in_brief": "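Drosophila S3 cells loaded with oleic acid (400 uM, as added) and compounds at several concentrations; lipid droplets imaged by 488-nm laser-scanning cytometry, 500–530 nm intensity and object ratio to cell channel. Percent activity normalized to 20 uM Triacsin C.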", "key": {"[1]": {"settings": "measured here: cell number channel AC50, cells fed with added oleic acid"}, "[2]": {"settings": "measured here: lipid fluorescence (Fed channel) AC50, cells fed with added oleic acid"}}, "note": "Some of the results follow. These are further read-outs of the screen, such as a control signal, another cell line or another target. No call is given for them. The list favours compounds with an active or inconclusive main result. The note in brackets gives the kind of curve behind each potency; many fits are weak."}
{"smiles": "O=C(CSc1ccccc1)NCCSCc1ccccc1", "values": [{"measurement": "cell number change", "result": 5.26, "unit": "%"}]}
{"smiles": "COC(=O)c1ccc(NC(=O)c2ccccc2CC[N+](=O)[O-])cc1", "values": [{"measurement": "cell number change", "result": 50.1, "unit": "%"}, {"measurement": "AC50", "setting": "[1]", "result": "16.4 µM [rising, partial curve]"}]}
{"smiles": "NC(=O)C1CCN(C(=O)C2CC(=O)N(c3ccc4c(c3)OCCO4)C2)CC1", "note": "(configuration not stated)", "values": [{"measurement": "cell number change", "result": -23.5, "unit": "%"}, {"measurement": "AC50", "setting": "[2]", "result": "0.731 µM [falling, full curve]"}]}
{"smiles": "COc1ccc(-c2nc(CS(=O)CC(=O)NCCCN3CCCC(C)C3)c(C)o2)cc1OC", "note": "(configuration not stated)", "values": [{"measurement": "cell number change", "result": 1.52, "unit": "%"}, {"measurement": "AC50", "setting": "[2]", "result": "20.6 µM [rising, partial curve, poor fit]"}]}
{"smiles": "N/C(=N\\OC(=O)c1cccc2ccccc12)c1ccc(Br)cc1", "values": [{"measurement": "AC50", "setting": "[2]", "result": "29.1 µM [falling, single point]"}]}
{"smiles": "CCc1ccc(-c2cc3c(=O)n(CC(=O)N4CCCC4)nc(C)n3n2)cc1", "values": [{"measurement": "cell number change", "result": 29.6, "unit": "%"}, {"measurement": "AC50", "setting": "[2]", "result": "14.6 µM [rising, partial curve]"}]}
{"smiles": "COC(=O)COc1ccc(=O)n(-c2ccccc2)n1", "values": [{"measurement": "cell number change", "result": -27.5, "unit": "%"}, {"measurement": "AC50", "setting": "[2]", "result": "18.4 µM [falling, partial curve]"}]}
{"smiles": "N#CC1(NC(=O)CN2C(=O)c3ccc([N+](=O)[O-])cc3C2=O)CCCCC1", "values": [{"measurement": "AC50", "setting": "[2]", "result": "6.51 µM [falling, single point]"}]}
{"smiles": "CCN(CC)C(=O)C1CCCN(Cc2ccc(F)c(F)c2)C1", "note": "(configuration not stated)", "values": [{"measurement": "cell number change", "result": 3.44, "unit": "%"}, {"measurement": "AC50", "setting": "[2]", "result": "29.1 µM [rising, single point]"}]}
{"smiles": "NC(=O)COC(=O)c1cccc(S(=O)(=O)N2CCN(c3ccccc3)CC2)c1", "values": [{"measurement": "cell number change", "result": -21.7, "unit": "%"}]}
{"smiles": "CCOC(=O)C1(N(CC)CC)Sc2cc(C)ccc2NC1=O", "note": "(configuration not stated)", "values": [{"measurement": "cell number change", "result": -45.4, "unit": "%"}, {"measurement": "AC50", "setting": "[1]", "result": "20.6 µM [falling, single point]"}, {"measurement": "AC50", "setting": "[2]", "result": "29.1 µM [falling, single point]"}]}
{"smiles": "COc1ccccc1C1CCN(Cc2ccc(Cl)c(Cl)c2)CC1", "values": [{"measurement": "cell number change", "result": -48.2, "unit": "%"}, {"measurement": "AC50", "setting": "[1]", "result": "16.4 µM [falling, single point]"}]}
{"smiles": "COCCN(CC(=O)Nc1ccccc1C(F)(F)F)C(=O)c1ccc(-n2cccn2)cc1", "values": [{"measurement": "cell number change", "result": 14.7, "unit": "%"}]}
{"smiles": "Cn1c(CNC(=O)CNC(=O)Cc2ccc(Cl)cc2)cc(=O)n(C)c1=O", "values": [{"measurement": "cell number change", "result": 24.5, "unit": "%"}, {"measurement": "AC50", "setting": "[2]", "result": "29.1 µM [rising, single point]"}]}
{"smiles": "Cc1nnc(NC(=O)c2ccc(S(=O)(=O)C(F)F)cc2)s1", "values": [{"measurement": "cell number change", "result": -14.4, "unit": "%"}, {"measurement": "AC50", "setting": "[2]", "result": "4.11 µM [falling, full curve, poor fit]"}]}
{"smiles": "CSc1cccc(NS(=O)(=O)c2cccs2)c1", "values": [{"measurement": "AC50", "setting": "[1]", "result": "0.651 µM [falling, partial curve, poor fit]"}, {"measurement": "AC50", "setting": "[2]", "result": "0.651 µM [falling, full curve]"}]}
{"smiles": "CC1CN(CCCCOc2ccc3ccccc3c2)CC(C)O1", "note": "(configuration not stated)", "values": [{"measurement": "cell number change", "result": -61.2, "unit": "%"}, {"measurement": "AC50", "setting": "[1]", "result": "29.1 µM [falling, single point]"}]}
{"smiles": "O=C(CNC(=O)N1CC(=O)Nc2ccccc21)NCCc1c[nH]c2ccccc12", "values": [{"measurement": "cell number change", "result": 16.7, "unit": "%"}]}
{"smiles": "Cc1cccc(C(=O)NNC(=O)C23CC4CC(CC(C4)C2)C3)c1O", "values": [{"measurement": "cell number change", "result": -0.833, "unit": "%"}, {"measurement": "AC50", "setting": "[2]", "result": "0.461 µM [falling, full curve]"}]}
{"smiles": "Cc1cc(C)cc(Nc2ncnc3nc[nH]c23)c1", "values": [{"measurement": "cell number change", "result": 29.7, "unit": "%"}, {"measurement": "AC50", "setting": "[2]", "result": "29.1 µM [rising, single point]"}]}
{"smiles": "Cc1cc(C)c(NC(=O)COC(=O)c2cccc3c2C(=O)c2ccccc2C3=O)c(C)c1", "values": [{"measurement": "cell number change", "result": 7.01, "unit": "%"}, {"measurement": "AC50", "setting": "[2]", "result": "6.51 µM [rising, single point]"}]}
{"smiles": "Cc1ccc(NC(=O)c2oc3ccc(S(=O)(=O)N4CCC5(CC4)OCCO5)cc3c2C)cc1C", "values": [{"measurement": "cell number change", "result": 9.32, "unit": "%"}, {"measurement": "AC50", "setting": "[2]", "result": "14.6 µM [rising, partial curve, poor fit]"}]}
{"smiles": "CC(=O)Nc1ccc(NC(=O)Cc2ccc(-c3ccccc3)cc2)cc1", "values": [{"measurement": "cell number change", "result": -10.6, "unit": "%"}]}
{"smiles": "O=C(NC1(O)C(=O)c2ccccc2C1=O)c1c(Cl)cccc1Cl", "values": [{"measurement": "cell number change", "result": -15.6, "unit": "%"}, {"measurement": "AC50", "setting": "[2]", "result": "0.0058 µM [falling, full curve, poor fit]"}]}
{"smiles": "COc1ccc(/C=C(/NC(=O)c2cccs2)C(=O)Nc2ccc(C)cc2)cc1OC", "values": [{"measurement": "cell number change", "result": -82.9, "unit": "%"}, {"measurement": "AC50", "setting": "[1]", "result": "2.31 µM [falling, full curve]"}, {"measurement": "AC50", "setting": "[2]", "result": "0.326 µM [falling, full curve]"}]}
{"smiles": "Cc1cccc(C)c1OCCCCCNCCO", "values": [{"measurement": "cell number change", "result": -12.3, "unit": "%"}]}
{"smiles": "CC(=O)c1cccc(NC(=S)NC(=O)c2cncc(Br)c2)c1", "values": [{"measurement": "cell number change", "result": -22, "unit": "%"}, {"measurement": "AC50", "setting": "[2]", "result": "25.9 µM [falling, partial curve, poor fit]"}]}
{"smiles": "O=C(COc1ccccc1)N1CCN(c2nnc(-c3ccccc3)c3ccccc23)CC1", "values": [{"measurement": "cell number change", "result": -2.35, "unit": "%"}, {"measurement": "AC50", "setting": "[2]", "result": "3.26 µM [rising, full curve, poor fit]"}]}
{"smiles": "Cc1ccc(C(=O)OCC(=O)Nc2ccccc2C(F)(F)F)cc1S(=O)(=O)N1CCCCC1", "values": [{"measurement": "cell number change", "result": 221, "unit": "%"}]}
{"smiles": "CCOC(CCNC(=O)c1cn(CC(C)C)c(=O)c2c1c1ccccc1n2C)OCC", "values": [{"measurement": "cell number change", "result": -30.5, "unit": "%"}, {"measurement": "AC50", "setting": "[1]", "result": "0.0651 µM [falling, full curve, poor fit]"}]}
{"smiles": "O=C(Nc1ccccc1N1CCCC1)c1ccc(Cl)c(S(=O)(=O)N2CCOCC2)c1", "values": [{"measurement": "cell number change", "result": 27.5, "unit": "%"}, {"measurement": "AC50", "setting": "[2]", "result": "29.1 µM [rising, single point]"}]}
{"smiles": "CCCCCCc1ccc(OCC(=O)O)cc1OCC(=O)O", "values": [{"measurement": "cell number change", "result": -1.23, "unit": "%"}, {"measurement": "AC50", "setting": "[2]", "result": "0.00651 µM [falling, full curve, poor fit]"}]}
